Measured values from PubChem BioAssay AID1671188 (National Center for Advancing Translational Sciences (NCATS), 2021).
The campaign covered roughly 100,000 compounds. About 250 (0.25%) were called active. These results got no clear call from the source, so the numbers are uncertain. Calls follow the shape of the dose curve; as a rule, active = well fitted inhibition curve with a large enough effect; inconclusive = small, poorly fitted or top-dose-only effect; inactive = flat fitted curve, though single readings scatter.

Protein sequences, listed by entry. Tags and fused reporters are not part of them.
UniProt Q8TD30, whole entry: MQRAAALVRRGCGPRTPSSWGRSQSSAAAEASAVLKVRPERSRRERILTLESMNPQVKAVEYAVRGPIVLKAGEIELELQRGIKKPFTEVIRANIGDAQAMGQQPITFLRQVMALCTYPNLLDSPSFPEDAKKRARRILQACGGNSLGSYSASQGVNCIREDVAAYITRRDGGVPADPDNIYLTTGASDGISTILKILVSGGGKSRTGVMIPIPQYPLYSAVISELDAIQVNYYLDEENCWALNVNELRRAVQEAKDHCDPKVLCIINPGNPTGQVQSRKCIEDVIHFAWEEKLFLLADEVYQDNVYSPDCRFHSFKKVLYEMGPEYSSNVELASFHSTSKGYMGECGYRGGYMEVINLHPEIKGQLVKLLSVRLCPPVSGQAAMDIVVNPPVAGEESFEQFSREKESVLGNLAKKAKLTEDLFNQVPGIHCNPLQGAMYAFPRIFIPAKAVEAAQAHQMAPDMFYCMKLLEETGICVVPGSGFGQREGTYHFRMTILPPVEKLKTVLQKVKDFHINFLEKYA

Target: Alanine aminotransferase 2 (Homo sapiens) (UniProt Q8TD30)
Assay: Primary qHTS assay for inhibitors of Glutamate pyruvate transaminase 2 (GPT2); also: nearly all actives have a fitted effect of over 60% in size
Conditions: Recombinant GPT2, coupled pyruvate oxidase/HRP Amplex Red fluorescence
Experimental: Assay Provider: Zhenghe John Wang Ph.D.
Case Western Reserve University, Cleveland OH
Glutamate pyruvate transaminase 2 (GPT2) catalyzes the reversible transamination of glutamate and pyruvate to provide a-ketoglutarate and alanine. We have optimized an assay for GPT2 enzymatic activity that couples pyruvate formation to detection of fluorescence using an established pyruvate oxidase/horseradish peroxidase / Amplex Red system.
Screening conditions were 250uM a-KG, 2mM L-alanine, and 10ng/uL GPT2 in […] of solution; 10uL of Amplex reaction mix (outlined below) were added so that final concentrations of Amplex reagents in 50uL were 0.2mM ThPP, 0.2U/mL PO and HRP, and 50uM Amplex.
NOTE: The volume of GPT2 in the system depends on the activity of it. The activity is different every batch. You need to test the activity before the assay. For full plate assay with automation, plate 20uL of GPT2 buffer to pin into, then add 10uL of GPT2 dilution followed immediately by 10uL of substrate dilution. 2 Columns of the plate were devoted to GPT2 buffer ([…] PH7.5, 0.0001% Tween) + 50uM AOA (known GPT2 inhibitor) to serve as a positive control. Complete the assay as normal. Amplex-red buffer: […] PH7.5, 1 mM EDTA, 1 mM MgCl2.
1. […]
5. Incubate for 30 minutes at room temperature in the dark, then image using AM_Amplex_Fluorescence on plate reader nearest the window.
Potency is read from the fitted curve at half-maximal effect.

Compound | Potency
CCC(=O)N(c1ccccc1)C1(COC)CCN(CCc2cccs2)CC1 | inconclusive: 7.94 µM
